Source: PMC12790717
No constants are given. Whether binding was seen depends on the method and setting. In cells and extracts the contact can be indirect. Some binding calls cover weakened binding; strength is not graded here.

By UniProt entry, the sequences of proteins in these tests, tags left out.
UniProt P51608: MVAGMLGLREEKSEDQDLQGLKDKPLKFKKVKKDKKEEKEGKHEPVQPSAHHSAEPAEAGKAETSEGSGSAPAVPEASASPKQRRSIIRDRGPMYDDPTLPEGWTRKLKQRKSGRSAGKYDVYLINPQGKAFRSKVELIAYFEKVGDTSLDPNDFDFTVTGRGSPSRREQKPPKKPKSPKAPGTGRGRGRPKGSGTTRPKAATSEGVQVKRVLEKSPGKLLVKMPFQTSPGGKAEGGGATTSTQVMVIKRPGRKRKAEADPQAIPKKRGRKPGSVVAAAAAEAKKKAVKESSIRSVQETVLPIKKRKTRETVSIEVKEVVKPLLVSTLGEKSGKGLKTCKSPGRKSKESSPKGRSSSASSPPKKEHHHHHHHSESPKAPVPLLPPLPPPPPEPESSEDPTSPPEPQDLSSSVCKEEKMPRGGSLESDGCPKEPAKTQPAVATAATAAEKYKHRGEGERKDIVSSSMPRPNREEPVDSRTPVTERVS
UniProt P09874: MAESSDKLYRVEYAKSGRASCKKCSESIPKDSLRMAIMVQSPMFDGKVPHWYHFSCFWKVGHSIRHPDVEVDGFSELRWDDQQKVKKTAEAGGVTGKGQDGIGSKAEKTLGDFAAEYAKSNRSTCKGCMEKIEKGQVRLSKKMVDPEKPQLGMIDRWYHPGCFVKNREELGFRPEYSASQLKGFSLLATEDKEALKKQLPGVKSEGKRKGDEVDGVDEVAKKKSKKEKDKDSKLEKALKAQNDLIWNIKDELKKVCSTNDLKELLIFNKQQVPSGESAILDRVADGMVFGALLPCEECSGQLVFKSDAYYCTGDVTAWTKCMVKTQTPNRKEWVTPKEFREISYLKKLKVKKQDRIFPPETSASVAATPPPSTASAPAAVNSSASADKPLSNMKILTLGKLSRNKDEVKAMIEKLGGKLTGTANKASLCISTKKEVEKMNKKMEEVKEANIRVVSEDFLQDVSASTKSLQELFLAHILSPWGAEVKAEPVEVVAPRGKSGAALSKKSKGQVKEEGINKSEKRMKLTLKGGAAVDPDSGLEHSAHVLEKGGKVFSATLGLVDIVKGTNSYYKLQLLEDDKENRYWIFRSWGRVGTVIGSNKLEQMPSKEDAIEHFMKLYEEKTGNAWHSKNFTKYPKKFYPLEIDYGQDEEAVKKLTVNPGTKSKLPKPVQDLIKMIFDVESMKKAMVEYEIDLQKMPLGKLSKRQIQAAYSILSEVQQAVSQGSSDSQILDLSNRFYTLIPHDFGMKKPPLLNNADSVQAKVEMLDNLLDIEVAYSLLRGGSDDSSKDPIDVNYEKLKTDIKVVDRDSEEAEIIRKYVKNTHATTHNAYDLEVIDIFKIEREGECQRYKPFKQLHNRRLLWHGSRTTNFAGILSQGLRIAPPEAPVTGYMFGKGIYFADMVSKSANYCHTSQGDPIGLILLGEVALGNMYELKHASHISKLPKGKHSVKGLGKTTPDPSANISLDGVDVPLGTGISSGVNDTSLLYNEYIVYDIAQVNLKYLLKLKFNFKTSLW

Biological target: Methyl-CpG-binding protein 2 (MECP2) (human (endogenous in hiPSC-derived neurons)) (UniProt P51608)
Experiment: co-IP; nuclear lysate of human wild-type neurons probed with IgG or an antibody against MECP2, incubated two hours, precipitated with protein-A beads; western blot with an antibody against PARP1

binding: binds
Substance: PARP1 (from UniProt P09874 1-1014) (enzyme)
